PubChem BioAssay AID1671195, Yale University | 2021
Here is one part, drawn at random, of about 22,000 deposited reagents. Over the whole deposit, about 1,510 (6.9%) got an active call. 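Active includes knockdowns raising or lowering LDL uptake; positive z-scores mean more uptake, negative mean less.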

Purpose: 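Genes whose knockdown alters LDL uptake in liver cancer cells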 (primary screen)
Cells: human Huh7 hepatoma cells
Knock-down reagent: siRNA pool against human genes, 18 nM
Time to read-out: about 2 to 2.5 days of knockdown, then 8 h LDL uptake
Challenge: DiI-labelled LDL at 30 µg/ml for 8 h, in lipoprotein-deficient serum medium
Read-out: 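Per-cell DiI-LDL intensity by automated imaging; well means scaled to the plate median and given as a robust z-score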
Reading the numbers: robust z-score: higher = more LDL uptake after knockdown
Active means: 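Active when two or more replicates show a robust z-score above 2 or below -2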

SEPTIN6
- robust z-score, replicate 1: 1.14
- robust z-score, replicate 2: -0.323
- robust z-score, replicate 3: 0.285
- outcome: inactive

RPS2P45
- robust z-score, replicate 1: 0.166
- robust z-score, replicate 2: 0.423
- robust z-score, replicate 3: 0.185
- outcome: inactive

GPR37L1
- robust z-score, replicate 1: 1.62
- robust z-score, replicate 2: 0.83
- robust z-score, replicate 3: 0.955
- outcome: inactive

CCDC157
- robust z-score, replicate 1: -0.138
- robust z-score, replicate 2: -0.0451
- robust z-score, replicate 3: -0.575
- outcome: inactive

RTL3
- robust z-score, replicate 1: -0.498
- robust z-score, replicate 2: -0.639
- robust z-score, replicate 3: -0.544
- outcome: inactive

NT5M
- robust z-score, replicate 1: 0.36
- robust z-score, replicate 2: 0.581
- robust z-score, replicate 3: 0.292
- outcome: inactive

COP1
- robust z-score, replicate 1: 1.66
- robust z-score, replicate 2: 1.45
- robust z-score, replicate 3: 2.45
- outcome: inactive

DGCR2
- robust z-score, replicate 1: -1.78
- robust z-score, replicate 2: -2.43
- robust z-score, replicate 3: -0.854
- outcome: inactive

Only “robust z-score, replicate 3”, for 4 of the entries above:
CCDC157: -0.575
RTL3: -0.544
NT5M: 0.292
COP1: 2.45

The list goes on:
LOC440995 (retired record)
- robust z-score, replicate 1: -0.185
- robust z-score, replicate 2: 0.592
- robust z-score, replicate 3: 0.347
- outcome: inactive

CLEC14A
- robust z-score, replicate 1: 0.321
- robust z-score, replicate 2: 0.101
- robust z-score, replicate 3: 0.514
- outcome: inactive

VPS13A
- robust z-score, replicate 1: -0.692
- robust z-score, replicate 2: -1.14
- robust z-score, replicate 3: -0.553
- outcome: inactive

C1orf50
- robust z-score, replicate 1: 1.63
- robust z-score, replicate 2: 0.901
- robust z-score, replicate 3: 2.12
- outcome: inactive

ADAMTS19
- robust z-score, replicate 1: -0.36
- robust z-score, replicate 2: -0.333
- robust z-score, replicate 3: -0.374
- outcome: inactive

TPTEP1
- robust z-score, replicate 1: -2.09
- robust z-score, replicate 2: -0.542
- robust z-score, replicate 3: -1.72
- outcome: inactive

SLC9B2
- robust z-score, replicate 1: -0.923
- robust z-score, replicate 2: -0.136
- robust z-score, replicate 3: -0.165
- outcome: inactive

LRRIQ4
- robust z-score, replicate 1: -1.29
- robust z-score, replicate 2: -1.09
- robust z-score, replicate 3: -1.13
- outcome: inactive

WNT3
- robust z-score, replicate 1: -1.31
- robust z-score, replicate 2: -0.096
- robust z-score, replicate 3: -1.59
- outcome: inactive

TLE2
- robust z-score, replicate 1: 0.955
- robust z-score, replicate 2: 0.114
- robust z-score, replicate 3: 0.796
- outcome: inactive

LOC401112 (retired record)
- robust z-score, replicate 1: -1.71
- robust z-score, replicate 2: -1.7
- robust z-score, replicate 3: -1.81
- outcome: inactive

LOC441333 (retired record)
- robust z-score, replicate 1: -1.1
- robust z-score, replicate 2: -1.57
- robust z-score, replicate 3: -1.17
- outcome: inactive

LRRC38
- robust z-score, replicate 1: 0.822
- robust z-score, replicate 2: 0.247
- robust z-score, replicate 3: -0.406
- outcome: inactive

PHKB
- robust z-score, replicate 1: 0.148
- robust z-score, replicate 2: -0.6
- robust z-score, replicate 3: 0.0429
- outcome: inactive

TIMP4
- robust z-score, replicate 1: -0.296
- robust z-score, replicate 2: 0.0166
- robust z-score, replicate 3: -0.362
- outcome: inactive

HSPA1B
- robust z-score, replicate 1: 0.204
- robust z-score, replicate 2: -0.0857
- robust z-score, replicate 3: -0.529
- outcome: inactive
